# Assay results reported in article PMC7199964.
# Construct, isoform or probe ends are uncertain for at least one entry. For part of these data: Negatives hold for the conditions tested. For part of these data: Weaker means in comparison with the reference protein, sequence or condition of that experiment. For part of these data: At least one verdict rests on a figure or table, not on a statement of the authors.
# Tests used:
# Assay in all cases: fluorescence polarization
# IMP1 KH1-2 variant = IMP1 KH1-2 variant (UniProt Q9NZI8); details: FP: 300 nM IMP1, 10 nM probe (inhibitor assays), binding buffer stock 50 mM Tris-Cl pH 7.4, 12.5 mM EDTA pH 8, 25% glycerol, 0.01% Triton-X, 37 C 30 min, recombinant protein, label: 3' 6-FL (fluorescein)
# IMP1 KH3 variant = IMP1 KH3 variant (UniProt Q9NZI8); details: FP: 300 nM IMP1, 10 nM probe (inhibitor assays), binding buffer stock 50 mM Tris-Cl pH 7.4, 12.5 mM EDTA pH 8, 25% glycerol, 0.01% Triton-X, 37 C 30 min, recombinant protein, label: 3' 6-FL (fluorescein)
# IMP1 KH3-4 variant = IMP1 KH3-4 variant (UniProt Q9NZI8); details: FP: 300 nM IMP1, 10 nM probe (inhibitor assays), binding buffer stock 50 mM Tris-Cl pH 7.4, 12.5 mM EDTA pH 8, 25% glycerol, 0.01% Triton-X, 37 C 30 min, recombinant protein, label: 3' 6-FL (fluorescein)
# IMP1 wild type = IMP1 wild type (UniProt Q9NZI8); details: confluentin, inhibition from 40 uM; FP: 300 nM IMP1, 10 nM probe (inhibitor assays), binding buffer stock 50 mM Tris-Cl pH 7.4, 12.5 mM EDTA pH 8, 25% glycerol, 0.01% Triton-X, 37 C 30 min; recombinant protein; residues 1-577; label: 3' 6-FL (fluorescein)
# KH1to4 IMP1 = KH1to4 IMP1 (UniProt Q9NZI8); details: FP: 300 nM IMP1, 10 nM probe (inhibitor assays), binding buffer stock 50 mM Tris-Cl pH 7.4, 12.5 mM EDTA pH 8, 25% glycerol, 0.01% Triton-X, 37 C 30 min, recombinant protein, label: 3' 6-FL (fluorescein)
# KH3&4 IMP1 (KH34) = KH3&4 IMP1 (KH34) (UniProt Q9NZI8); details: no effect, FP: 300 nM IMP1, 10 nM probe (inhibitor assays), binding buffer stock 50 mM Tris-Cl pH 7.4, 12.5 mM EDTA pH 8, 25% glycerol, 0.01% Triton-X, 37 C 30 min, recombinant protein, label: 3' 6-FL (fluorescein)
Sequence,binding result (IMP1 KH1-2 variant),binding result (IMP1 KH3 variant),binding result (IMP1 KH3-4 variant),binding result (IMP1 wild type),"binding result (KH1to4 IMP1; confluentin, inhibition above 40 uM)","binding result (KH1to4 IMP1; grifolin up to 100 uM, no effect)","binding result (KH1to4 IMP1; neogrifolin up to 100 uM, no effect)",binding result (KH3&4 IMP1 (KH34); grifolin up to 100 uM),binding result (KH3&4 IMP1 (KH34); neogrifolin up to 100 uM),binding result (IMP1 KH1-2 variant; no increase even at 1000 nM),binding result (IMP1 KH3 variant; significantly reduced vs WT),binding result (IMP1 KH3-4 variant; slightly reduced vs WT)
AUGGAGAAACCUGUCUCUUGGAUAUUCUCGACACAGCAGGUCAU [44-nt KRAS RNA (nts 142-185)],no binding,binds more weakly,binds more weakly,binds more weakly,binds more weakly,binds,binds,binds,binds,,,
AAAUUAGGGCCCAAUUAAUAAUCAGCAAGAAUUUGAUCG [39-nt CD44 RNA (nts 2862-2900)],,,,,,,,,,no binding,binds more weakly,binds more weakly
